From the supplement of paper PMC10727501
The other results are listed elsewhere or left out. This data set is noisy: repeats of one test often differ as much as different tests do.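 Researchers measured free-swimming zebrafish larvae's O-bend response probability to dark flashes (naive: first five; training: remaining flashes of four 60-flash blocks; test: later 60-flash block) and OMR turning toward alternating leftward/rightward LED motion. Six treated larvae were compared to sixty 0.1% DMSO controls, with |SSMD|≥2 marking a hit.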

How the values were obtained:
Details in all cases: 10 µM; pre-incubation: 30-90 min
[1] = tested on: Danio rerio larvae (5 dpf, TLF); assay: OMR-Perf (SSMD vs DMSO vehicle); higher = higher than vehicle (e.g. higher dark-flash O-bend response probability, or better optomotor performance)
[2] = tested on: Danio rerio larvae (5 dpf, TLF); assay: Prob-Test (SSMD vs DMSO vehicle); higher = higher than vehicle (e.g. higher dark-flash O-bend response probability, or better optomotor performance)
[3] = tested on: Danio rerio larvae (5 dpf, TLF); assay: Prob-Naive (SSMD vs DMSO vehicle); higher = higher than vehicle (e.g. higher dark-flash O-bend response probability, or better optomotor performance)
[4] = tested on: Danio rerio larvae (5 dpf, TLF); assay: Prob-Train (SSMD vs DMSO vehicle); higher = higher than vehicle (e.g. higher dark-flash O-bend response probability, or better optomotor performance)

Oc1ccc(-c2nc(-c3ccc(F)cc3)c(-c3ccncc3)[nH]2)cc1
OMR-Perf [1]: -0.182 | Prob-Test [2]: -0.184 | Prob-Naive [3]: 0.568 | Prob-Train [4]: -0.0434

COc1ccc(CN(CCN(C)C)c2ccccn2)cc1.O=C(O)C=CC(=O)O [Pyrilamine Maleate]
OMR-Perf [1]: 0.207 | Prob-Test [2]: 0.247 | Prob-Naive [3]: 0.444 | Prob-Train [4]: 0.0767

O=C1CCC(N2C(=O)c3ccccc3C2=O)C(=O)N1 (stereo unspecified) [Thalidomide]
OMR-Perf [1]: -0.115 | Prob-Test [2]: 0.0741 | Prob-Naive [3]: -0.123 | Prob-Train [4]: -0.0276

Cc1c(Cc2ccc3ccccc3n2)c2cc(F)ccc2n1CC(=O)O
OMR-Perf [1]: -0.563 | Prob-Test [2]: 0.172 | Prob-Naive [3]: 0.287 | Prob-Train [4]: 0.102

COc1ccc(S(=O)(=O)Nc2cccnc2Nc2ccc(O)cc2)cc1
OMR-Perf [1]: -0.239 | Prob-Test [2]: -0.124 | Prob-Naive [3]: 0.515 | Prob-Train [4]: -0.219

COc1cc2c(N3CCN(C(=O)Nc4ccc(OC(C)C)cc4)CC3)ncnc2cc1OCCCN1CCCCC1 [Tandutinib (MLN518)]
OMR-Perf [1]: 0.409 | Prob-Test [2]: -0.0257 | Prob-Naive [3]: 0.35 | Prob-Train [4]: 0.486

CC(C)c1nc(CN(C)C(=O)N[C@@H](CCN2CCOCC2)C(=O)N[C@H](CC[C@H](Cc2ccccc2)NC(=O)OCc2cncs2)Cc2ccccc2)cs1 [Cobicistat (GS-9350)]
OMR-Perf [1]: 0.273 | Prob-Test [2]: -0.447 | Prob-Naive [3]: -0.487 | Prob-Train [4]: -0.605

Brc1c(NC2=NCCN2)ccc2nccnc12.O=C(O)[C@@H](O)[C@@H](O)C(=O)O [Brimonidine Tartrate]
OMR-Perf [1]: -0.445 | Prob-Test [2]: -0.805 | Prob-Naive [3]: -0.314 | Prob-Train [4]: -1.12

NC(=O)c1ccc(-c2nc(-c3ccc4c(c3)OCO4)c(-c3ccccn3)[nH]2)cc1
OMR-Perf [1]: 0.246 | Prob-Test [2]: -0.359 | Prob-Naive [3]: 0.456 | Prob-Train [4]: -0.0393

O=c1cc(O)c(Cl)c[nH]1 [Gimeracil]
OMR-Perf [1]: -0.885 | Prob-Test [2]: 0.324 | Prob-Naive [3]: -0.0729 | Prob-Train [4]: 0.459

CC(=O)Nc1nc(C)c(-c2ccc(Cl)c(S(=O)(=O)NCCO)c2)s1
OMR-Perf [1]: 0.15 | Prob-Test [2]: -0.243 | Prob-Naive [3]: 0.0951 | Prob-Train [4]: 0.00251

Clc1ccc2c(c1)C(N1CCNCC1)=Nc1ccccc1O2 [Amoxapine]
OMR-Perf [1]: -0.986 | Prob-Test [2]: 0.24 | Prob-Naive [3]: 0.433 | Prob-Train [4]: 0.508

O=C(O)c1cccc(-c2noc(-c3ccccc3F)n2)c1 [Ataluren (PTC124)]
OMR-Perf [1]: -0.47 | Prob-Test [2]: -1.54 | Prob-Naive [3]: -0.905 | Prob-Train [4]: -0.373

COC(=O)c1ccc2c(c1)nc(NC(=O)c1ccccc1)n2CCCc1ccccc1
OMR-Perf [1]: -0.357 | Prob-Test [2]: 0.151 | Prob-Naive [3]: 0.446 | Prob-Train [4]: -0.531

OCc1ccccc1O[C@@H]1O[C@H](CO)[C@@H](O)[C@H](O)[C@H]1O [Salicin]
OMR-Perf [1]: 0.328 | Prob-Test [2]: 0.2 | Prob-Naive [3]: -0.0187 | Prob-Train [4]: 0.205

OC[C@@H](O)[C@@H](O)[C@H](O)[C@H](O)CO [D-Mannitol]
OMR-Perf [1]: -0.456 | Prob-Test [2]: -0.176 | Prob-Naive [3]: 0.208 | Prob-Train [4]: -0.277

CS(=O)(=O)O.Cn1cc(C2=C(c3cn(CCCSC(=N)N)c4ccccc34)C(=O)NC2=O)c2ccccc21 [Ro 31-8220 Mesylate]
OMR-Perf [1]: 0.326 | Prob-Test [2]: 0.0316 | Prob-Naive [3]: 0.135 | Prob-Train [4]: 0.393

C=C(NC(=O)C(=C)NC(=O)c1csc(C2=N[C@@H]3c4csc(n4)[C@H]4NC(=O)c5csc(n5)[C@H]([C@](C)(O)[C@@H](C)O)NC(=O)[C@H]5CSC(=N5)/C(=C/C)NC(=O)[C@H]([C@@H](C)O)NC(=O)c5csc(n5)[C@]3(CC2)NC(=O)[C@H](C)NC(=O)C(=C)NC(=O)[C@H](C)NC(=O)[C@H]([C@@H](C)CC)N[C@@H]2C=Cc3c([C@H](C)O)cc(nc3[C@H]2O)C(=O)O[C@@H]4C)n1)C(N)=O [Thiostrepton]
OMR-Perf [1]: 0.0385 | Prob-Test [2]: -0.41 | Prob-Naive [3]: -0.154 | Prob-Train [4]: -0.113

COc1ccc(CCc2nc3cc(-c4c(C)noc4C)ccc3n2C[C@H](C)N2CCOCC2)cc1Cl
OMR-Perf [1]: -0.748 | Prob-Test [2]: -1.75 | Prob-Naive [3]: -0.842 | Prob-Train [4]: -1.87

Cc1ccc(S(=O)(=O)NC(=O)NN2CCCCCC2)cc1 [Tolazamide]
OMR-Perf [1]: 0.309 | Prob-Test [2]: -0.347 | Prob-Naive [3]: 0.153 | Prob-Train [4]: 0.093

CC(C)(C#N)c1ccc(N2C(=O)OCc3cnc4ccc(-c5cnc6ccccc6c5)cc4c32)cc1
OMR-Perf [1]: -0.223 | Prob-Test [2]: -0.557 | Prob-Naive [3]: -0.102 | Prob-Train [4]: -0.674

CN1Cc2c(N)cccc2C(c2ccccc2)C1.O=C(O)/C=C\C(=O)O (stereo unspecified) [Nomifensine Maleate]
OMR-Perf [1]: 0.601 | Prob-Test [2]: 0.606 | Prob-Naive [3]: 0.298 | Prob-Train [4]: 0.579

CNCc1ccc(C)c(NC(=O)c2ccc(Nc3nc(-c4ccccc4)c4ccccc4n3)cc2)c1
OMR-Perf [1]: -0.511 | Prob-Test [2]: -1.24 | Prob-Naive [3]: -0.825 | Prob-Train [4]: -1.77

C=C1CC[C@@H]2[C@](C)(CO)[C@H](O)CC[C@@]2(C)[C@H]1C/C=C1/C(=O)OCC1O (stereo partly specified) [Andrographolide]
OMR-Perf [1]: 0.373 | Prob-Test [2]: 0.324 | Prob-Naive [3]: -0.29 | Prob-Train [4]: 0.331

Nc1cc(C(F)(F)F)c(-c2cc(N3CCOCC3)nc(N3CCOCC3)n2)cn1 [BKM120 (NVP-BKM120, Buparlisib)]
OMR-Perf [1]: -0.75 | Prob-Test [2]: -1.03 | Prob-Naive [3]: 0.0122 | Prob-Train [4]: -0.243

O=C(O)CSCC(=O)NC1CCSC1=O (stereo unspecified) [Erdosteine]
OMR-Perf [1]: 0.529 | Prob-Test [2]: -0.682 | Prob-Naive [3]: 0.0939 | Prob-Train [4]: -0.726

CNC(=O)CN(CCN(CCN(CC(=O)[O-])CC(=O)NC)CC(=O)[O-])CC(=O)[O-].O.[Gd+3] [Gadodiamide]
OMR-Perf [1]: 0.0971 | Prob-Test [2]: -0.287 | Prob-Naive [3]: 0.471 | Prob-Train [4]: 0.00671

COc1ccccc1N1CCN(CCCNc2cc(=O)n(C)c(=O)n2C)CC1.Cl [Urapidil HCl]
OMR-Perf [1]: -0.467 | Prob-Test [2]: 0.437 | Prob-Naive [3]: 0.462 | Prob-Train [4]: 0.357

CC(C[N+](C)(C)C)OC(N)=O.[Cl-] (stereo unspecified) [Bethanechol chloride]
OMR-Perf [1]: 0.283 | Prob-Test [2]: -0.395 | Prob-Naive [3]: -0.354 | Prob-Train [4]: -0.842

CCC(=O)NCC[C@@H]1CCc2ccc3c(c21)CCO3 [Ramelteon]
OMR-Perf [1]: -0.567 | Prob-Test [2]: -1.62 | Prob-Naive [3]: -1.4 | Prob-Train [4]: -2.17

CC(=O)OCC(=O)[C@@]1(O)CC[C@H]2[C@@H]3CCC4=CC(=O)C=C[C@]4(C)[C@@]3(Cl)[C@@H](Cl)C[C@@]21C [Dichlorisone Acetate]
OMR-Perf [1]: 0.564 | Prob-Test [2]: 0.224 | Prob-Naive [3]: 0.444 | Prob-Train [4]: -0.43

CN(C)c1ccc(-c2nc3c(N4CCN(CC(=O)Nc5nccs5)CC4)c(Cl)cnc3[nH]2)cc1
OMR-Perf [1]: -0.177 | Prob-Test [2]: -0.163 | Prob-Naive [3]: -0.043 | Prob-Train [4]: -0.195

Nc1ncnc2c1c(-c1cccc(OCc3ccccc3)c1)cn2[C@H]1C[C@H](CN2CCCC2)C1
OMR-Perf [1]: -0.289 | Prob-Test [2]: 0.454 | Prob-Naive [3]: 0.255 | Prob-Train [4]: -0.219

CN[C@H](CC(=O)O)C(=O)O [NMDA (N-Methyl-D-aspartic acid)]
OMR-Perf [1]: -0.475 | Prob-Test [2]: -0.0621 | Prob-Naive [3]: 0.42 | Prob-Train [4]: -0.169

CC[C@@H]1C(=O)N(C)c2cnc(Nc3ccc(C(=O)N[C@H]4CC[C@H](N5CCN(CC6CC6)CC5)CC4)cc3OC)nc2N1C(C)C [Volasertib (BI 6727)]
OMR-Perf [1]: -0.376 | Prob-Test [2]: -0.0472 | Prob-Naive [3]: -0.397 | Prob-Train [4]: -0.426

O=C(C=Cc1ccccc1)NC(NC(=S)Nc1ccc(Cl)cc1)C(Cl)(Cl)Cl (stereo unspecified)
OMR-Perf [1]: 0.0646 | Prob-Test [2]: -0.312 | Prob-Naive [3]: 0.0676 | Prob-Train [4]: -0.13

O=C1NC(=O)/C(=C/c2ccc(-c3ccc(F)cc3O)o2)S1
OMR-Perf [1]: -0.386 | Prob-Test [2]: -1.03 | Prob-Naive [3]: -0.901 | Prob-Train [4]: -0.754

CCN(CC)CC#CCOC(=O)C(O)(c1ccccc1)C1CCCCC1 (stereo unspecified) [Oxybutynin (Ditropan)]
OMR-Perf [1]: -0.748 | Prob-Test [2]: -0.427 | Prob-Naive [3]: 0.13 | Prob-Train [4]: -1.19

C=C1/C(=C/C=C2\CCC[C@@]3(C)[C@H]2CC[C@H]3[C@H](C)/C=C/[C@@H](C)C(C)C)C[C@H](O)C[C@@H]1O [Doxercalciferol]
OMR-Perf [1]: -0.616 | Prob-Test [2]: -0.887 | Prob-Naive [3]: -0.0954 | Prob-Train [4]: -0.0982

COc1ccc([C@@H]2CC(=O)c3c(O)cc(O)cc3O2)cc1O [Hesperetin]
OMR-Perf [1]: -0.0313 | Prob-Test [2]: -0.382 | Prob-Naive [3]: -0.599 | Prob-Train [4]: -0.382

Nc1nc(Cl)nc2c1ncn2[C@@H]1O[C@H](CO)[C@@H](O)[C@@H]1F [Clofarabine]
OMR-Perf [1]: 0.0915 | Prob-Test [2]: 0.0657 | Prob-Naive [3]: 0.214 | Prob-Train [4]: 0.572

O=C(O)C(Cc1ccccc1N(O)O)=NNC1=NC(c2ccc(Cl)c(Cl)c2)CS1 (stereo unspecified)
OMR-Perf [1]: 0.713 | Prob-Test [2]: -0.262 | Prob-Naive [3]: -0.366 | Prob-Train [4]: -0.472

NC(=O)[C@@H](CCC(F)(F)F)N(Cc1ccc(-c2ncon2)cc1F)S(=O)(=O)c1ccc(Cl)cc1
OMR-Perf [1]: -1.46 | Prob-Test [2]: -1.74 | Prob-Naive [3]: -2.04 | Prob-Train [4]: -1.79

Cn1c(=O)cc(N2CCCC(N)C2)n(Cc2cc(F)ccc2C#N)c1=O (stereo unspecified) [Trelagliptin]
OMR-Perf [1]: 0.134 | Prob-Test [2]: 0.0526 | Prob-Naive [3]: 0.248 | Prob-Train [4]: 0.0442
